From the supplement of paper PMC8866396
± gives the standard deviation of the averaged measurements. The list shows a part of the results. Single values are uncertain here, since repeats match poorly.

How the values were obtained:
[1] = test system: IL-6-GFP PC-9GR; assay: IL-6-GFP fluorescence relative to DMSO control (fraction of control); higher = more IL-6-GFP expression; settings: compound concentration: 10 uM; treatment time: 48 h
Protocol: (§1)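 IL-6-GFP-overexpressing PC-9 and PC-9GR EGFR-mutant lung cancer cells (3000 cells/well, 96-well) were treated for 48 h with each compound of the Selleck L2000 library at 10 uM. IL-6-GFP fluorescence was read on a high-content screening system, and viability by CCK-8 absorbance on a parallel plate set. Each value was normalised as compound well / DMSO control well; two independent replicates.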

[2] = test system: IL-6-GFP PC-9; assay: as above; settings: compound concentration: 10 uM; treatment time: 48 h
Protocol: as §1

Compound | IL-6-GFP fluorescence [1] | IL-6-GFP fluorescence [2]
CC1(C(=O)O)CCC2(C)CCC3(C)C(=CC(=O)C4C5(C)CCC(OC6OC(C(=O)O)C(O)C(O)C6OC6OC(C(=O)O)C(O)C(O)C6O)C(C)(C)C5CCC43C)C2C1.N.N (stereo not given) [Diammonium Glycyrrhizinate] | 0.893 ± 0.13 | 0.985 ± 0.44
CNC(=O)c1cc(Oc2ccc(NC(=O)Nc3ccc(Cl)c(C(F)(F)F)c3)c(F)c2)ccn1.O [Regorafenib Monohydrate] | 0.94 ± 0.099 | 0.903 ± 0.0094
Cc1cn(-c2cc(NC(=O)c3ccc(C)c(Nc4nccc(-c5cccnc5)n4)c3)cc(C(F)(F)F)c2)cn1 [Nilotinib (AMN-107)] | 0.95 ± 0.12 | 0.969 ± 0.1
Cc1ccc(C2OC(CO)C(O)C(O)C2O)cc1Cc1ccc(-c2ccc(F)cc2)s1.Cc1ccc(C2OC(CO)C(O)C(O)C2O)cc1Cc1ccc(-c2ccc(F)cc2)s1.O (stereo not given) [Canagliflozin hemihydrate] | 0.813 ± 0.14 | 0.835 ± 0.086
CC1(C)OC2CC3C4CCC5=CC(=O)C=CC5(C)C4C(O)CC3(C)C2(C(=O)CO)O1 (stereo not given) [Desonide] | 0.829 ± 0.35 | 0.85 ± 0.11
COc1cc2ncnc(Nc3ccc(F)c(Cl)c3)c2cc1OCCCN1CCOCC1 [Gefitinib (ZD1839)] | 1.09 ± 0.14 | 0.961 ± 0.038
CNC(=O)c1ccc(N2C(=S)N(c3ccc(C#N)c(C(F)(F)F)c3)C(=O)C2(C)C)cc1F [Enzalutamide (MDV3100)] | 1.02 ± 0.04 | 0.861 ± 0.07
Cl.O=C(OCC(O)CO)c1ccccc1Nc1ccnc2cc(Cl)ccc12 (stereo not given) [Glafenine HCl] | 1.15 ± 0.64 | 1.63 ± 0.33
CC(=O)OC1CCC2(C)C(=CCC3C2CCC2(C)C(c4cccnc4)=CCC32)C1 (stereo not given) [Abiraterone Acetate] | 0.706 ± 0.17 | 0.821 ± 0.3
O=C(OCCOCCO)c1ccccc1Nc1cccc(C(F)(F)F)c1 [Etofenamate] | 0.876 ± 0.051 | 0.956 ± 0.0097
Cl.O=C1NCC2(CCN(CCc3ccccc3)CC2)O1 [Fenspiride HCl] | 0.699 ± 0.13 | 0.962 ± 0.087
CC(=O)OC1C(=O)C2(C)C(O)CC3OCC3(OC(C)=O)C2C(OC(=O)c2ccccc2)C2(O)CC(OC(=O)C(O)C(NC(=O)c3ccccc3)c3ccccc3)C(C)=C1C2(C)C (stereo not given) [Paclitaxel] | 1.14 ± 0.042 | 0.98 ± 0.058
CCCCCCCCCCCC1=C(O)C(=O)C=C(O)C1=O [Embelin] | 0.677 ± 0.045 | 0.681 ± 0.027
Cc1nnc(C(C)C)n1C1CC2CCC(C1)N2CCC(NC(=O)C1CCC(F)(F)CC1)c1ccccc1 (stereo not given) [Maraviroc] | 0.777 ± 0.11 | 0.838 ± 0.19
C/C=C(/C(=C/C)c1ccc(O)cc1)c1ccc(O)cc1 [Dienestrol] | 0.734 ± 0.23 | 0.89 ± 0.1
O=C(c1ccc(OCCN2CCCCC2)cc1)c1c(-c2ccc(O)cc2)sc2cc(O)ccc12 [Raloxifene] | 0.937 ± 0.16 | 0.71 ± 0.14
Cc1nccn1CC1CCc2c(c3ccccc3n2C)C1=O.Cl (stereo not given) [Ondansetron HCl] | 0.998 ± 0.21 | 0.822 ± 0.092
CC1(C(=O)O)CCC2(C)CCC3(C)C(=CC(=O)C4C5(C)CCC(OC6OC(C(=O)O)C(O)C(O)C6OC6OC(C(=O)O)C(O)C(O)C6O)C(C)(C)C5CCC43C)C2C1.N (stereo not given) [Ammonium Glycyrrhizinate] | 0.876 ± 0.07 | 0.806 ± 0.26
COc1cc(/C=C/C(=O)/C=C(O)/C=C/c2ccc(O)c(OC)c2)ccc1O [Curcumin] | 1.12 ± 0.74 | 1.26 ± 0.19
CCOC(=O)c1ccc(OC(=O)CCCCCNC(=N)N)cc1.CS(=O)(=O)O [Gabexate Mesylate] | 0.808 ± 0.1 | 0.938 ± 0.23
CC/C(=C(/CC)c1ccc(O)cc1)c1ccc(O)cc1 [Diethylstilbestrol] | 0.547 ± 0.23 | 0.966 ± 0.11
Clc1ccc(C(c2ccccc2Cl)C(Cl)Cl)cc1 (stereo not given) [Mitotane] | 0.792 ± 0.15 | 0.88 ± 0.063
COc1cc(N2CCC(N3CCN(C)CC3)CC2)ccc1Nc1ncc(Cl)c(Nc2ccccc2P(C)(C)=O)n1 | 0.419 ± 0.066 | 0.588 ± 0.17
CC1(C)SC2C(NC(=O)C(c3ccccc3)S(=O)(=O)[O-])C(=O)N2C1C(=O)[O-].[Na+].[Na+] (stereo not given) [Sulbenicillin Sodium] | 0.897 ± 0.19 | 0.947 ± 0.077
CN1C2=CC(=O)/C(=N\NC(N)=O)C=C2CC1S(=O)(=O)[O-].[Na+] (stereo not given) [Carbazochrome sodium sulfonate (AC-17)] | 0.569 ± 0.55 | 0.8378 ± 0.0024

An excerpt from further up, for reference:
Compound | IL-6-GFP fluorescence [1] | IL-6-GFP fluorescence [2]
O=C(OCCOCCO)c1ccccc1Nc1cccc(C(F)(F)F)c1 [Etofenamate] | 0.876 ± 0.051 | 0.956 ± 0.0097
Cl.O=C1NCC2(CCN(CCc3ccccc3)CC2)O1 [Fenspiride HCl] | 0.699 ± 0.13 | 0.962 ± 0.087
